# Measurements reported in the supplement of paper PMC10849652.
# Sequences of proteins named here, by UniProt entry; tags and fusion partners are left off. A change or cut given only in a name is not applied to a line headed by its entry.
# UniProt Q14108: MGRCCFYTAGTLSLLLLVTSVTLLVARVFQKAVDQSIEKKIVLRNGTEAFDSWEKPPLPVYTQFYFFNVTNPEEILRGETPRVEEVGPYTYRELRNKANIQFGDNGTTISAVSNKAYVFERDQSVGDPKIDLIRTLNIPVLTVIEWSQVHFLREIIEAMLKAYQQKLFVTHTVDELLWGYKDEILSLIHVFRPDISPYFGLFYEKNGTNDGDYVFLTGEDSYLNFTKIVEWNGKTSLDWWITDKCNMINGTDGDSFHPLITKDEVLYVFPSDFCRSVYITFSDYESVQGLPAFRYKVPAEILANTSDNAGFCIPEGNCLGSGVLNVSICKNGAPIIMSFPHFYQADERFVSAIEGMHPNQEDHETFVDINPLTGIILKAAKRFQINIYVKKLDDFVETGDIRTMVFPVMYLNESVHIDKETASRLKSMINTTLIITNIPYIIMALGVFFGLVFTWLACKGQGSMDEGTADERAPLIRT
# UniProt Q9Y265, whole entry, looked up: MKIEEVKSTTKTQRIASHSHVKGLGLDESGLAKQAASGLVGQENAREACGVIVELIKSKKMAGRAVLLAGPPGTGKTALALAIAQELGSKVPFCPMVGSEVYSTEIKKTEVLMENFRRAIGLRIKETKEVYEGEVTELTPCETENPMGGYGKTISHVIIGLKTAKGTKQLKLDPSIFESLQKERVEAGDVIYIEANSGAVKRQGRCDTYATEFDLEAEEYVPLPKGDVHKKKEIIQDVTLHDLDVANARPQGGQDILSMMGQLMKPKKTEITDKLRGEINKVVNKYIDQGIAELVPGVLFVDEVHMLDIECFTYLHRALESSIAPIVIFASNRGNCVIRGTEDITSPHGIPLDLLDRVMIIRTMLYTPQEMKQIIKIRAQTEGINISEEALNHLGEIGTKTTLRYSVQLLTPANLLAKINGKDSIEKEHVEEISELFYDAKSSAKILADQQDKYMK
# UniProt P31040: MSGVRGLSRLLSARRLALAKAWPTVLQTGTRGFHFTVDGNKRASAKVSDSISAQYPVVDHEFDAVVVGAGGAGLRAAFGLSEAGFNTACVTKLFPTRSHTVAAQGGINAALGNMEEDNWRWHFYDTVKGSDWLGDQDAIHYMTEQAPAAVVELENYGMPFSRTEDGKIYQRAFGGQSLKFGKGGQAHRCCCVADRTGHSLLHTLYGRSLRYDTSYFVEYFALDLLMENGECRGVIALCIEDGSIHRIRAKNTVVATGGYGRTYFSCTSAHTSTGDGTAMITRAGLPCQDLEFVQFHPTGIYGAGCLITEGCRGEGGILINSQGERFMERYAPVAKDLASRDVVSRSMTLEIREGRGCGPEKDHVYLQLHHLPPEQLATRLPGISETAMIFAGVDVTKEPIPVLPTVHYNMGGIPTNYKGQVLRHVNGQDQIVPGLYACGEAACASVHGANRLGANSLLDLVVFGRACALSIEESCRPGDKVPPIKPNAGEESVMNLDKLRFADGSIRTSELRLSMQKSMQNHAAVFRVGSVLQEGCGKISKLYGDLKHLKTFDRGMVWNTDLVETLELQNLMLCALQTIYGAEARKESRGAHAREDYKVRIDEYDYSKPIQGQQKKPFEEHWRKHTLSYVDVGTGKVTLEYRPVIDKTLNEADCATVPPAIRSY
# UniProt Q9Y6U3: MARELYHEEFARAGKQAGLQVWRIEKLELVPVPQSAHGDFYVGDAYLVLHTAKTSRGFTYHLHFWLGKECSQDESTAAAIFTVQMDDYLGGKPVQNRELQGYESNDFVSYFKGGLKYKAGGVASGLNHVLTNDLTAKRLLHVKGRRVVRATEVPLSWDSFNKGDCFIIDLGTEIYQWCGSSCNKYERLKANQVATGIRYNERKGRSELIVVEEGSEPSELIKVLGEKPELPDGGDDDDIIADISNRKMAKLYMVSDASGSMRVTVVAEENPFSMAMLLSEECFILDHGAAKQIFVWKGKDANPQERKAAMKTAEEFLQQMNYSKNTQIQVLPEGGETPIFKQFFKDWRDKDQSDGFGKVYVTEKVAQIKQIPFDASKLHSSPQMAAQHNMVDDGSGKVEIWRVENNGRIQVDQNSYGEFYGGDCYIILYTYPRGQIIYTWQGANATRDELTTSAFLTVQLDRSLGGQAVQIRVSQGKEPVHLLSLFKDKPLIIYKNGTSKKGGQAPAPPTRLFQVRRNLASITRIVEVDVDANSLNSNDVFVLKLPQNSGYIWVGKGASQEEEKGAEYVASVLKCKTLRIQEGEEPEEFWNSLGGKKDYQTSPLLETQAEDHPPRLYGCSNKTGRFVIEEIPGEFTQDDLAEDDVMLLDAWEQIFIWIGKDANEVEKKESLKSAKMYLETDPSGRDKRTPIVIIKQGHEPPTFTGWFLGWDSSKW
# UniProt Q969E2: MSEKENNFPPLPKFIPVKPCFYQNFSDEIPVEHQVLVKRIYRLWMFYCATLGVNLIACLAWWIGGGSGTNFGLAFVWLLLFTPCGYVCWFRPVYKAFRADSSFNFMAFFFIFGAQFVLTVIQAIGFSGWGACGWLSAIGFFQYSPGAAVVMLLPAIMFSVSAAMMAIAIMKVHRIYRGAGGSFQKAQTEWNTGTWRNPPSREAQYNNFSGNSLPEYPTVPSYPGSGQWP
# UniProt Q0VDG4: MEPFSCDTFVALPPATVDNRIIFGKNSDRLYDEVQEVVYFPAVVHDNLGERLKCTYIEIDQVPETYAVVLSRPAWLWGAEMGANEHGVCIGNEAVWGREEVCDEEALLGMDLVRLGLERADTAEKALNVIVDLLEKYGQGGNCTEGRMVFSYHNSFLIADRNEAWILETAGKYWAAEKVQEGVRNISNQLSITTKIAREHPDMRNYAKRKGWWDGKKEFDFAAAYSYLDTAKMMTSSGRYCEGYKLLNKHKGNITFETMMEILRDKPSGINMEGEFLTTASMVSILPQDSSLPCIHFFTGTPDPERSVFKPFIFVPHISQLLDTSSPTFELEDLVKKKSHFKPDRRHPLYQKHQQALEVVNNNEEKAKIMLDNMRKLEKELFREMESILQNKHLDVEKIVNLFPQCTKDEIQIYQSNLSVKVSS
# UniProt Q9H446: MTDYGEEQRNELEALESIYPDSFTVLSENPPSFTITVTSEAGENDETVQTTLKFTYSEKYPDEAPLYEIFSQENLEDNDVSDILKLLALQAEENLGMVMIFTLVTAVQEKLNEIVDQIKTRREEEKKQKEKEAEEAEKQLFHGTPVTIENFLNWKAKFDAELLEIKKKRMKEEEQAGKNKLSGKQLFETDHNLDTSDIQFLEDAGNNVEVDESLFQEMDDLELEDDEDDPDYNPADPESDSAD
# UniProt Q8WU76: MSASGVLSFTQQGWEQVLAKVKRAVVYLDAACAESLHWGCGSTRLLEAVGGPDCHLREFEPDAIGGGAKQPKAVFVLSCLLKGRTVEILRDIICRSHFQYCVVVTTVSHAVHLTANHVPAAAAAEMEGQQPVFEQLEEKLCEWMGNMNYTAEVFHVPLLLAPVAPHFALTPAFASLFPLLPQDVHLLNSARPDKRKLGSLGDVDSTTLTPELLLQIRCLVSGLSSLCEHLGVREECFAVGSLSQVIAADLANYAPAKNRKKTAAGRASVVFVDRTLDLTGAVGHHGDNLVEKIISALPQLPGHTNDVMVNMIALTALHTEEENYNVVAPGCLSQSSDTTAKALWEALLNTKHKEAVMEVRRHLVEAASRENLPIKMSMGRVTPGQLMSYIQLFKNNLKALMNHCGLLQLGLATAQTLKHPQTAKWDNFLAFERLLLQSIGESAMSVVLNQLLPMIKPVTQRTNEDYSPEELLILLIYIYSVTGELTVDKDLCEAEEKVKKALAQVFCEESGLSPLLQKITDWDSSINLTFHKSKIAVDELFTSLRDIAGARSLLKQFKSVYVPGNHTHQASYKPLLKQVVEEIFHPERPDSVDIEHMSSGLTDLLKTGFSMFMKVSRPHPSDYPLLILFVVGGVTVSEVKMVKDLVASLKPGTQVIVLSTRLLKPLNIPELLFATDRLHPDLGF
# UniProt Q15424: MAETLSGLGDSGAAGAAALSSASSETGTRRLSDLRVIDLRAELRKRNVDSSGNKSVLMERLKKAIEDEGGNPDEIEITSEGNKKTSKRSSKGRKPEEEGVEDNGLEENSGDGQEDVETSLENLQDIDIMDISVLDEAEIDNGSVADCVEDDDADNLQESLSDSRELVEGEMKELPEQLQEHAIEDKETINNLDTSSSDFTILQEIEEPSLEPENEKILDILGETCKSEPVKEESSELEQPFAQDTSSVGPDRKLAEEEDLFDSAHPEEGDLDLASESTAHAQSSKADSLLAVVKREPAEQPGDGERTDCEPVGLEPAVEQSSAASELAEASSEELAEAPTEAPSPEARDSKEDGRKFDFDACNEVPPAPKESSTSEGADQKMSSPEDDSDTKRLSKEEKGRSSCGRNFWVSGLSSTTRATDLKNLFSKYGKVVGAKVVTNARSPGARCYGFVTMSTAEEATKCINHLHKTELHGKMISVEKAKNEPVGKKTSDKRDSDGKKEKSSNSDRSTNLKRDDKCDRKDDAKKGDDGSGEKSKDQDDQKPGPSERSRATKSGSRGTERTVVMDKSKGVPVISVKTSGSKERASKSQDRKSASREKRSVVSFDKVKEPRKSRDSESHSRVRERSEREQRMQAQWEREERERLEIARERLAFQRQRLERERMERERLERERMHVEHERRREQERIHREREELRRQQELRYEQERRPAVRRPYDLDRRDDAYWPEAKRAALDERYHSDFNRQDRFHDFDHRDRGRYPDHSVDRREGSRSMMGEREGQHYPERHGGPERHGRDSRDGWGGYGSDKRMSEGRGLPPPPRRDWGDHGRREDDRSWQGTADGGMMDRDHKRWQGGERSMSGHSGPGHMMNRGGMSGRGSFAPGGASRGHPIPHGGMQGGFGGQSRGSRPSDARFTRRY
# UniProt Q8WTV0: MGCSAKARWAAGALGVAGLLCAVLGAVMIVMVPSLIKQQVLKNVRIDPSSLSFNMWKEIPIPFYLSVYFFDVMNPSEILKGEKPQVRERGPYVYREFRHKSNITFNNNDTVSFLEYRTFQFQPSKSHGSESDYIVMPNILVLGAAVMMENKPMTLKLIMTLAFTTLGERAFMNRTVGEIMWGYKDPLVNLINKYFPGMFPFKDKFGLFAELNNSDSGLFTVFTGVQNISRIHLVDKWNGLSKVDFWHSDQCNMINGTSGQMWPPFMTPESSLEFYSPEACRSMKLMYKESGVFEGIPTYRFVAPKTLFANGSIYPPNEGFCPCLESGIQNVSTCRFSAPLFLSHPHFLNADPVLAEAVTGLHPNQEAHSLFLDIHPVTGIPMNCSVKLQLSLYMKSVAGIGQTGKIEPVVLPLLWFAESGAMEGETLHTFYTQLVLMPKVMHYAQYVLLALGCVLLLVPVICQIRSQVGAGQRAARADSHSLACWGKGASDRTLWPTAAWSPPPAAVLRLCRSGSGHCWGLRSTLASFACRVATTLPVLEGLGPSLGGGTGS
# UniProt Q9HCN8: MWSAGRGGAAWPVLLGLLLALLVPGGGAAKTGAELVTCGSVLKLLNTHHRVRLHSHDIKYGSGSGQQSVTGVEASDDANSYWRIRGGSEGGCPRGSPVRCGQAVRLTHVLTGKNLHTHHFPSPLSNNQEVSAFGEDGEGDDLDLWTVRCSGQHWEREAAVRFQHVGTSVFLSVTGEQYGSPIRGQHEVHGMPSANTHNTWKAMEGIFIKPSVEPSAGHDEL
# UniProt Q5VWQ0: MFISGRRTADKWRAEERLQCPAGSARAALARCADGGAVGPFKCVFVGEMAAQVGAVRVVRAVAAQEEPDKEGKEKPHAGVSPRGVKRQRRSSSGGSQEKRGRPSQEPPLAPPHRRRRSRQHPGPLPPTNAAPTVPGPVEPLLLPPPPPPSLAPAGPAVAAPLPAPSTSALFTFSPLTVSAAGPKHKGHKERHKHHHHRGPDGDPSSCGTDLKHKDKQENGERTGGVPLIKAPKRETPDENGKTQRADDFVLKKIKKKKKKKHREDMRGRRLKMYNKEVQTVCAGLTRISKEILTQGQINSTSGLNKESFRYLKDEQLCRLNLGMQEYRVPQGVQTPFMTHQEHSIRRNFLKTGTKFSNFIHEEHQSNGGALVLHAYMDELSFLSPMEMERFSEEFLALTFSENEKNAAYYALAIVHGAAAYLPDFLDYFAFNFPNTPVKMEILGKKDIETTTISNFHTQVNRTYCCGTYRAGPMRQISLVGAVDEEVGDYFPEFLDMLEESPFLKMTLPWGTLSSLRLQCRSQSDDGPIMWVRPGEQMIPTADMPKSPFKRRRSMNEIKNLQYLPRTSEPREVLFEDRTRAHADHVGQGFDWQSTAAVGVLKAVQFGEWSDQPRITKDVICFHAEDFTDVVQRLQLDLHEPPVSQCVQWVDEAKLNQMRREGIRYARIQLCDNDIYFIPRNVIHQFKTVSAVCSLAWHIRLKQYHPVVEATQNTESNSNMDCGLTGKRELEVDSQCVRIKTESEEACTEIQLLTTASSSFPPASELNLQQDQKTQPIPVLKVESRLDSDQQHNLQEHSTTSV
# The list shows a part of the results.
# How the values were obtained:
# Assay in all cases: log2 fold change, soluble protein after heating vs DMSO (PISA); higher = thermal stabilisation; K562 cells, 10 uM, 30 min; active = over 0.2 and 3.5 SD of the protein, either way, in both replicates (recomputed)
# saracatinib = compound: CN1CCN(CCOc2cc(OC3CCOCC3)c3c(Nc4c(Cl)ccc5c4OCO5)ncnc3c2)CC1 [saracatinib]
# Outline: (§1)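 K562 cells at 2×10^6 cells/mL were treated for 30 min with 10 μM compound, and aliquots were heated for 3 min over 48°C-58°C before pooling. Extraction used PBS with 0.5% NP-40 at 4°C, and soluble protein was the supernatant after 21,000xg for 90 min, measured by TMTpro 16plex LC-MS/MS with channel sums equalised. Thermal stability values, relative to control samples and from duplicates, are log2 fold changes.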
# sotrastaurin = compound: CN1CCN(c2nc(C3=C(c4c[nH]c5ccccc45)C(=O)NC3=O)c3ccccc3n2)CC1 [sotrastaurin]
# Outline: as §1
# alvocidib = compound: CN1CC[C@H](c2c(O)cc(O)c3c(=O)cc(-c4ccccc4Cl)oc23)[C@H](O)C1 [alvocidib]
# Outline: as §1
# Tubastatin A = compound: CN1CCc2c(c3ccccc3n2Cc2ccc(C(=O)NO)cc2)C1 [Tubastatin A]
# Outline: as §1
# [1] = compound: CNC(=O)C1=CC=CC=C1NC2=NC(=NC=C2Cl)NC3=C(C=C(C=C3)N4CCOCC4)OC
# Outline: as §1
# defactinib = compound: CNC(=O)c1ccc(Nc2ncc(C(F)(F)F)c(NCc3nccnc3N(C)S(C)(=O)=O)n2)cc1 [defactinib]
# Outline: as §1
# rucaparib = compound: CNCc1ccc(-c2[nH]c3cc(F)cc4c3c2CCNC4=O)cc1 [rucaparib]
# Outline: as §1
# [2] = compound: CNc1nc(-c2ccc3c(N)n[nH]c3c2)cc(N2C[C@@H](C(=O)NC3CCCCC3)CC[C@H]2C)n1
# Outline: as §1
# encorafenib = compound: COC(=O)N[C@@H](C)CNc1nccc(-c2cn(C(C)C)nc2-c2cc(Cl)cc(NS(C)(=O)=O)c2F)n1 [encorafenib]
# Outline: as §1
# [3] = compound: COC(=O)[C@H](CCSC)NC(=O)C1=C(C=C(C=C1)NC[C@H](CS)N)C2=CC=CC=C2
# Outline: as §1
# [4] = compound: COC1=CC=C(C=C1)CN2C=CC3=C2C=C(C=C3)C(=O)NO
# Outline: as §1
# filanesib = compound: CON(C)C(=O)N1N=C(c2cc(F)ccc2F)S[C@@]1(CCCN)c1ccccc1 [filanesib]
# Outline: as §1
# zotarolimus = compound: CO[C@H]1C[C@@H]2CC[C@@H](C)[C@@](O)(O2)C(=O)C(=O)N2CCCC[C@H]2C(=O)O[C@H]([C@H](C)C[C@@H]2CC[C@H](n3cnnn3)[C@H](OC)C2)CC(=O)[C@H](C)/C=C(\C)[C@@H](O)[C@@H](OC)C(=O)[C@H](C)C[C@H](C)/C=C/C=C/C=C/1C [zotarolimus]
# Outline: as §1
# idasanutlin = compound: COc1cc(C(=O)O)ccc1NC(=O)[C@@H]1N[C@@H](CC(C)(C)C)[C@](C#N)(c2ccc(Cl)cc2F)[C@H]1c1cccc(Cl)c1F [idasanutlin]
# Outline: as §1
# alisertib = compound: COc1cc(Nc2ncc3c(n2)-c2ccc(Cl)cc2C(c2c(F)cccc2OC)=NC3)ccc1C(=O)O [alisertib]
# Outline: as §1
# [5] = compound: COc1cc2nc(-c3cc(F)ccc3O)nc(N[C@@H]3CNC[C@H]3C(C)(C)O)c2cc1OC
# Outline: as §1
# gefitinib = compound: COc1cc2ncnc(Nc3ccc(F)c(Cl)c3)c2cc1OCCCN1CCOCC1 [gefitinib]
# Outline: as §1
# [6] = compound: COc1cccc2cc(-c3nc([C@H]4CC[C@H](C(=O)O)CC4)n4ncnc(N)c34)[nH]c12
# Outline: as §1
# lapatinib = compound: CS(=O)(=O)CCNCc1ccc(-c2ccc3ncnc(Nc4ccc(OCc5cccc(F)c5)c(Cl)c4)c3c2)o1 [lapatinib]
# Outline: as §1
# pictilisib = compound: CS(=O)(=O)N1CCN(Cc2cc3nc(-c4cccc5[nH]ncc45)nc(N4CCOCC4)c3s2)CC1 [pictilisib]
# Outline: as §1
Target,log2 fold change (saracatinib),log2 fold change (sotrastaurin),log2 fold change (alvocidib),log2 fold change (Tubastatin A),log2 fold change [1],log2 fold change (defactinib),log2 fold change (rucaparib),log2 fold change [2],log2 fold change (encorafenib),log2 fold change [3],log2 fold change [4],log2 fold change (filanesib),log2 fold change (zotarolimus),log2 fold change (idasanutlin),log2 fold change (alisertib),log2 fold change [5],log2 fold change (gefitinib),log2 fold change [6],log2 fold change (lapatinib),log2 fold change (pictilisib)
SEC13 isoform 3 (UniProt P55735),inactive: -0.001,inactive: -0.049,inactive: 0.002,inactive: -0.001,inactive: 0.01,inactive: -0.042,inactive: -0.026,inactive: 0.017,inactive: -0.031,inactive: 0.017,inactive: 0.014,inactive: -0.002,inactive: 0.02,inactive: -0.035,inactive: -0.033,inactive: 0.064,inactive: -0.006,inactive: -0.055,inactive: 0.022,inactive: 0.003
SCARB2 (UniProt Q14108),inactive: 0.003,inactive: 0.088,inactive: -0.102,inactive: -0.019,inactive: 0.037,inactive: -0.046,inactive: -0.09,inactive: -0.019,inactive: -0.043,inactive: 0,inactive: -0.043,inactive: -0.002,inactive: -0.023,inactive: -0.065,inactive: -0.018,inactive: -0.028,inactive: 0.003,inactive: 0.037,inactive: 0.118,inactive: 0.036
RUVBL2 (UniProt Q9Y230),inactive: 0.033,inactive: 0.026,inactive: 0.038,inactive: -0.011,inactive: 0.013,inactive: 0.008,inactive: -0.056,inactive: 0.003,inactive: -0.029,inactive: 0.008,inactive: -0.034,inactive: -0.015,inactive: -0.033,inactive: -0.048,inactive: -0.089,inactive: 0.004,inactive: 0.001,inactive: 0.016,inactive: 0.013,inactive: -0.005
RUVBL1 (UniProt Q9Y265),inactive: 0.021,inactive: 0.043,inactive: 0.042,inactive: -0.048,inactive: 0.018,inactive: 0.018,inactive: -0.021,inactive: -0.026,inactive: -0.047,inactive: 0.03,inactive: -0.009,inactive: 0,inactive: -0.034,inactive: -0.034,inactive: -0.086,inactive: 0.033,inactive: 0.005,inactive: 0.033,inactive: -0.033,inactive: 0.047
SDHA (UniProt P31040),inactive: 0.049,inactive: 0.002,inactive: 0.038,inactive: -0.021,inactive: 0.013,inactive: 0.012,inactive: -0.033,inactive: -0.036,inactive: -0.023,inactive: 0.01,inactive: 0.085,inactive: -0.093,inactive: -0.033,inactive: -0.007,inactive: -0.057,inactive: -0.054,inactive: 0,inactive: -0.011,inactive: -0.005,inactive: -0.01
SAAL1 (UniProt Q96ER3),inactive: 0.001,inactive: -0.044,active: 0.355,inactive: -0.089,inactive: 0.042,inactive: 0.203,inactive: 0.031,inactive: -0.069,inactive: 0.017,inactive: -0.031,inactive: -0.179,inactive: -0.032,inactive: 0.016,inactive: -0.11,inactive: -0.067,inactive: 0.214,inactive: -0.055,inactive: 0.018,inactive: -0.002,inactive: -0.018
SCIN (UniProt Q9Y6U3),inactive: -0.031,inactive: -0.221,inactive: -0.102,inactive: -0.053,inactive: 0.012,inactive: -0.035,inactive: 0.191,inactive: 0.106,inactive: 0.055,inactive: -0.042,inactive: 0.002,inactive: 0.027,inactive: 0.021,inactive: 0.011,inactive: -0.121,inactive: -0.038,inactive: -0.149,inactive: -0.085,inactive: 0.06,inactive: 0.114
SCAMP4 (UniProt Q969E2),inactive: 0.072,inactive: 0.045,inactive: -0.044,inactive: -0.023,inactive: 0.023,inactive: -0.02,inactive: 0.019,inactive: 0.011,inactive: -0.03,inactive: 0.052,inactive: -0.051,inactive: 0.019,inactive: -0.038,inactive: -0.013,inactive: -0.075,inactive: 0.006,inactive: 0.005,inactive: 0.102,inactive: -0.051,inactive: 0.004
SCRN3 (UniProt Q0VDG4),inactive: 0.106,inactive: -0.002,inactive: 0.002,inactive: 0.02,inactive: 0.001,inactive: -0.106,inactive: 0.012,inactive: 0.002,inactive: -0.048,inactive: -0.018,inactive: -0.018,inactive: -0.104,inactive: -0.005,inactive: -0.006,inactive: -0.075,inactive: -0.096,inactive: 0.013,inactive: -0.004,inactive: 0.017,inactive: -0.03
SAP30BP (UniProt Q9UHR5),inactive: 0.051,inactive: 0.005,inactive: 0.037,inactive: -0.016,inactive: -0.049,inactive: -0.023,inactive: 0.012,inactive: -0.141,inactive: -0.056,inactive: 0.037,inactive: 0.018,inactive: -0.009,inactive: -0.018,inactive: 0.039,inactive: -0.04,inactive: 0.018,inactive: 0.013,inactive: 0.02,inactive: -0.006,inactive: -0.122
RWDD1 (UniProt Q9H446),inactive: 0.045,inactive: -0.01,inactive: -0.043,inactive: -0.003,inactive: 0.047,inactive: -0.068,inactive: -0.079,inactive: -0.016,inactive: 0.007,inactive: 0.011,inactive: 0.029,inactive: -0.035,inactive: 0.026,inactive: -0.048,inactive: -0.021,inactive: -0.039,inactive: 0.024,inactive: 0.012,inactive: 0.117,inactive: -0.018
SCFD2 (UniProt Q8WU76),inactive: -0.094,inactive: -0.011,inactive: 0.008,inactive: 0.039,inactive: 0.088,inactive: -0.052,inactive: 0.198,inactive: 0.167,inactive: 0.085,inactive: -0.175,inactive: -0.077,inactive: 0.026,inactive: 0.044,inactive: 0.274,inactive: -0.137,inactive: -0.039,inactive: -0.021,inactive: -0.064,inactive: 0.074,inactive: -0.151
SAFB isoform 3 (UniProt Q15424),inactive: -0.074,inactive: -0.008,inactive: 0.286,inactive: 0.062,inactive: -0.104,inactive: 0.19,inactive: 0.131,inactive: -0.016,inactive: 0.023,inactive: 0.016,inactive: 0.043,inactive: 0.305,inactive: -0.026,inactive: 0.219,inactive: -0.117,inactive: -0.043,inactive: -0.018,inactive: -0.027,inactive: -0.032,inactive: -0.13
SCARB1 isoform 2 (UniProt Q8WTV0),inactive: -0.018,inactive: 0.046,inactive: -0.029,inactive: -0.009,inactive: -0.021,inactive: -0.022,inactive: -0.005,inactive: -0.037,inactive: 0.026,inactive: 0.016,inactive: 0.054,inactive: -0.099,inactive: -0.023,inactive: -0.036,inactive: -0.056,inactive: -0.071,inactive: -0.01,inactive: 0.087,inactive: 0.011,inactive: 0.061
SDF2L1 (UniProt Q9HCN8),inactive: -0.115,inactive: 0.024,inactive: 0.014,inactive: 0.028,inactive: 0.032,inactive: 0.036,inactive: 0.003,inactive: -0.003,inactive: 0.012,inactive: 0.022,inactive: -0.027,inactive: 0.054,inactive: 0.006,inactive: 0.021,inactive: -0.015,inactive: -0.017,inactive: -0.028,inactive: 0.015,inactive: 0.025,inactive: 0.045
RSBN1 (UniProt Q5VWQ0),inactive: 0.023,inactive: -0.025,inactive: 0.132,inactive: 0.237,inactive: 0.085,inactive: 0.096,inactive: 0.148,inactive: 0.073,inactive: 0.126,inactive: 0.009,inactive: -0.185,inactive: 0.376,inactive: -0.057,inactive: 0.344,inactive: -0.037,inactive: -0.082,inactive: -0.05,inactive: -0.112,inactive: 0.127,inactive: -0.115

# Nothing new here: an excerpt of the list.
Target,log2 fold change (saracatinib),log2 fold change (sotrastaurin),log2 fold change (alvocidib),log2 fold change (Tubastatin A),log2 fold change [1],log2 fold change (defactinib),log2 fold change (rucaparib),log2 fold change [2],log2 fold change (encorafenib),log2 fold change [3],log2 fold change [4],log2 fold change (filanesib),log2 fold change (zotarolimus),log2 fold change (idasanutlin),log2 fold change (alisertib),log2 fold change [5],log2 fold change (gefitinib),log2 fold change [6],log2 fold change (lapatinib),log2 fold change (pictilisib)
SAAL1 (UniProt Q96ER3),inactive: 0.001,inactive: -0.044,active: 0.355,inactive: -0.089,inactive: 0.042,inactive: 0.203,inactive: 0.031,inactive: -0.069,inactive: 0.017,inactive: -0.031,inactive: -0.179,inactive: -0.032,inactive: 0.016,inactive: -0.11,inactive: -0.067,inactive: 0.214,inactive: -0.055,inactive: 0.018,inactive: -0.002,inactive: -0.018
SCIN (UniProt Q9Y6U3),inactive: -0.031,inactive: -0.221,inactive: -0.102,inactive: -0.053,inactive: 0.012,inactive: -0.035,inactive: 0.191,inactive: 0.106,inactive: 0.055,inactive: -0.042,inactive: 0.002,inactive: 0.027,inactive: 0.021,inactive: 0.011,inactive: -0.121,inactive: -0.038,inactive: -0.149,inactive: -0.085,inactive: 0.06,inactive: 0.114
